Source: publication PMC9144045
Results are given in words; binding and its absence hold for the method and conditions named. In cells and extracts the contact can be indirect.

Protein sequences, listed by entry. Tags and fused reporters are not part of them. Lines headed by an entry give the natural chain unless they say otherwise; changes in a name come on top.
UniProt Q05655: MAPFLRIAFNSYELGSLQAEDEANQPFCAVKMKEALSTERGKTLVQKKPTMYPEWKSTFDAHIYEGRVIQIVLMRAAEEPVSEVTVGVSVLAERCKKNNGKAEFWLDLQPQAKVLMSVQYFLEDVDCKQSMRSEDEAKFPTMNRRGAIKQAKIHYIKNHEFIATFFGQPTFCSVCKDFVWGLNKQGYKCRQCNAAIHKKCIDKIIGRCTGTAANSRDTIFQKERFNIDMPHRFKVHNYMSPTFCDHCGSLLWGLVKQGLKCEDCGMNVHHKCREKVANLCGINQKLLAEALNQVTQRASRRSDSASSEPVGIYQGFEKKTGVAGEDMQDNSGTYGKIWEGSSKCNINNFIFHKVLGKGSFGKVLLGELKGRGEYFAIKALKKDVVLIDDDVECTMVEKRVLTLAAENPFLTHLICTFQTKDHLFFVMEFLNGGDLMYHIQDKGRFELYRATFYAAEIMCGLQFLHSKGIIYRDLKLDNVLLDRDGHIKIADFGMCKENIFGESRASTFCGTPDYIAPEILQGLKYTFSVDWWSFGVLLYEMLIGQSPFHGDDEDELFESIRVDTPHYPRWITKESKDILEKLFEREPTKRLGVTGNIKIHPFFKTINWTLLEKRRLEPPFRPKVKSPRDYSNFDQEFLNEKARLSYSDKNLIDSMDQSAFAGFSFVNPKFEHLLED
UniProt P09429: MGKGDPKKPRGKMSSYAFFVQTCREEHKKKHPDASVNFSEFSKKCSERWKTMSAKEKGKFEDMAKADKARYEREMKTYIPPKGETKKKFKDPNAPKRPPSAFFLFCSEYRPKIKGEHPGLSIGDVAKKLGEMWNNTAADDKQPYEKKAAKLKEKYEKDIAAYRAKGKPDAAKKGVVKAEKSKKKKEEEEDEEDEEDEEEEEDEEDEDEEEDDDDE

Biological target: PKCδ-Flag (UniProt Q05655)
Experiment: co-IP

HMGB1-HA wild type (from UniProt P09429 1-215)
binding: no binding
